{"source": "patent US10849880B2", "about": "“Pharmaceutical composition” (FUJIFILM Toyama Chemical Co., Ltd., priority 2016, dated 2020)", "assay": "Evaluation of bitter taste (post-bitter taste) with taste sensing system SA402B, CPA value, 1 mg/mL sample", "conditions": "bitter taste score from CPA value via sensory calibration curve; maleate of compound A 1 mg/mL in 10 mmol/L KCl, agitated 30 minutes"}
{"compound": "OC1CN(CCCOCCc2ccc3sccc3c2)C1", "note": "[compound 14, 1-(3-(2-(1-benzothiophen-5-yl)ethoxy)propyl)azetidin-3-ol]", "values": [{"measurement": "Bitter taste (post-bitter taste)", "value": 3.0}]}
